From PMC4513857, “PRC2 regulates RNA polymerase III transcribed non-translated RNA gene transcription through EZH2 and SUZ12 interaction with TFIIIC complex” (Nucleic Acids Research, 2015)
No constants are given. Whether binding was seen depends on the method and setting. Binding seen in cells or lysates may run through a third protein. Some results given as binding are weak or reduced against the parent protein; the word gives no strength.

By UniProt entry, the sequences of proteins in these tests, tags left out. Where a name states a change or a piece, a line headed by the entry shows the natural chain unless it says otherwise. Residues count along the entry.
UniProt Q15910: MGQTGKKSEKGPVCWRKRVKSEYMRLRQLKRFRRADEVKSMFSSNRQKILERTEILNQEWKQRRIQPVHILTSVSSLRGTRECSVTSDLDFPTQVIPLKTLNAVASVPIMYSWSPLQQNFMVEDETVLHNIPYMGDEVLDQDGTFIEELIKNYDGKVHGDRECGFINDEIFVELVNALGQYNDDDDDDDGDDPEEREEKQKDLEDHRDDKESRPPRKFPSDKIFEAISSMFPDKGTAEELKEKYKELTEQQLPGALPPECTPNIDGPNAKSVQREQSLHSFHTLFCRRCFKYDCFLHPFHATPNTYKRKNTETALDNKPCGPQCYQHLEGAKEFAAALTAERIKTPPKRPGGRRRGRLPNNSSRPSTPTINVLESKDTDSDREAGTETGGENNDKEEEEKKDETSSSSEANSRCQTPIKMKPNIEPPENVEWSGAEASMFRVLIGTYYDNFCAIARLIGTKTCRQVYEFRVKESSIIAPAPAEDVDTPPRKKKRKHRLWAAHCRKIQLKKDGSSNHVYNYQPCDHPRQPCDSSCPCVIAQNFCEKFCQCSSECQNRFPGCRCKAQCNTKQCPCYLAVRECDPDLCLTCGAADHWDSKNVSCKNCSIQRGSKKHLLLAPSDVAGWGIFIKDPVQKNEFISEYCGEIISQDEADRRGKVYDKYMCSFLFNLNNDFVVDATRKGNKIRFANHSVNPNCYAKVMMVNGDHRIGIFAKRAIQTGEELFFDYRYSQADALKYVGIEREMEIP
GST-EZH2 fragment A, N-terminal region (Domain I + Domain II), aa 1-522: residues 1-522 of Q15910
UniProt Q15022: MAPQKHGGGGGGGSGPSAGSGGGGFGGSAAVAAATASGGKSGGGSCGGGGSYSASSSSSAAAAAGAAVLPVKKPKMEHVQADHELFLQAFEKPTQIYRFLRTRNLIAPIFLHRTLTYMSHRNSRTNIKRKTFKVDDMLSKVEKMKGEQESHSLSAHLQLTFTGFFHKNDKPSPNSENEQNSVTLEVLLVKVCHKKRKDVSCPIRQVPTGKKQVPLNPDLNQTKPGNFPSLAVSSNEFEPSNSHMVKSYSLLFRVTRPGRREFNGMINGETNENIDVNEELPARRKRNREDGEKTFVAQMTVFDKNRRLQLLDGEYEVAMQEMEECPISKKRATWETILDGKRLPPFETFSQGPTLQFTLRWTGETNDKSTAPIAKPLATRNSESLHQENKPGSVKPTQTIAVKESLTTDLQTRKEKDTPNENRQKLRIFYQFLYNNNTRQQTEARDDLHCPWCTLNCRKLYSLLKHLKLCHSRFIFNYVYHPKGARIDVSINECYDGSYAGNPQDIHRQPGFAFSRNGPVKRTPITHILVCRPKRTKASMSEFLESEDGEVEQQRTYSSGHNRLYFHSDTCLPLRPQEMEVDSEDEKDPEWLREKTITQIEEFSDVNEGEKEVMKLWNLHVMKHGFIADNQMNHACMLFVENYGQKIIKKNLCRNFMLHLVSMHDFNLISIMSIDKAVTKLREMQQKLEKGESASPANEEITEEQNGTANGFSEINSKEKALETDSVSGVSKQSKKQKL

Assays:
[1] = biological target: T1, TFIIIC102, endogenous (human (endogenous in MCF7, SUM159, HeLa)) (UniProt Q9Y5Q9); test: co-IP; endogenous proteins; MCF7 and SUM159 lysates in NP-40 buffer (50 mM Tris-HCl pH 7.4, 150 mM NaCl, 1% NP-40, 1 mM EDTA), antibody overnight at 4°C, protein A/G-Sepharose, western blot; normal rabbit or mouse IgG as negative controls; EZH2-TFIIIC102 also with DNase
T1 sequence: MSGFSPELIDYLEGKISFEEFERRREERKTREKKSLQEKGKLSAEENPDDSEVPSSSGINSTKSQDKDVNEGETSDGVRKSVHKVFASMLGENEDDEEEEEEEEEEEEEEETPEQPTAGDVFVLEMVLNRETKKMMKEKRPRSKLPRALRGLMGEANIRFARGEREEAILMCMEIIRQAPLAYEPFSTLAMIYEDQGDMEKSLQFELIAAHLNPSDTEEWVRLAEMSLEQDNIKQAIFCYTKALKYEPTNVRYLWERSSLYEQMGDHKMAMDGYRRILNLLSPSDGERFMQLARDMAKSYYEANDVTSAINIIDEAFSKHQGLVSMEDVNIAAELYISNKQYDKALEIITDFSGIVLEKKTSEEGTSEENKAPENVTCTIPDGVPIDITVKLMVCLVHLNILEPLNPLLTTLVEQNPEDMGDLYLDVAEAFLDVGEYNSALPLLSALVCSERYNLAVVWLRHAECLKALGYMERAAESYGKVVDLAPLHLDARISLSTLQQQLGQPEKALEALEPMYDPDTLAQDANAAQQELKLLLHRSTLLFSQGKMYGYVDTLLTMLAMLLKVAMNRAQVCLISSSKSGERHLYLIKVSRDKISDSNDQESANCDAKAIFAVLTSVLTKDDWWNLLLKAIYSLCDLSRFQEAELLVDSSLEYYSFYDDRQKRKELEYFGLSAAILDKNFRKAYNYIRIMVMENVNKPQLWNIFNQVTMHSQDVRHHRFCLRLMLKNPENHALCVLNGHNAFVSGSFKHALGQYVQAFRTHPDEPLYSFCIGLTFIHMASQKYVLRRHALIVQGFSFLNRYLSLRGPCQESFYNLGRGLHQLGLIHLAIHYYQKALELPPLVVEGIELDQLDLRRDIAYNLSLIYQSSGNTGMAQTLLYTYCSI

[2] = biological target: T2, TFIIIC110, endogenous (human (endogenous in MCF7, SUM159, HeLa)) (UniProt Q8WUA4); test: as above
T2 sequence: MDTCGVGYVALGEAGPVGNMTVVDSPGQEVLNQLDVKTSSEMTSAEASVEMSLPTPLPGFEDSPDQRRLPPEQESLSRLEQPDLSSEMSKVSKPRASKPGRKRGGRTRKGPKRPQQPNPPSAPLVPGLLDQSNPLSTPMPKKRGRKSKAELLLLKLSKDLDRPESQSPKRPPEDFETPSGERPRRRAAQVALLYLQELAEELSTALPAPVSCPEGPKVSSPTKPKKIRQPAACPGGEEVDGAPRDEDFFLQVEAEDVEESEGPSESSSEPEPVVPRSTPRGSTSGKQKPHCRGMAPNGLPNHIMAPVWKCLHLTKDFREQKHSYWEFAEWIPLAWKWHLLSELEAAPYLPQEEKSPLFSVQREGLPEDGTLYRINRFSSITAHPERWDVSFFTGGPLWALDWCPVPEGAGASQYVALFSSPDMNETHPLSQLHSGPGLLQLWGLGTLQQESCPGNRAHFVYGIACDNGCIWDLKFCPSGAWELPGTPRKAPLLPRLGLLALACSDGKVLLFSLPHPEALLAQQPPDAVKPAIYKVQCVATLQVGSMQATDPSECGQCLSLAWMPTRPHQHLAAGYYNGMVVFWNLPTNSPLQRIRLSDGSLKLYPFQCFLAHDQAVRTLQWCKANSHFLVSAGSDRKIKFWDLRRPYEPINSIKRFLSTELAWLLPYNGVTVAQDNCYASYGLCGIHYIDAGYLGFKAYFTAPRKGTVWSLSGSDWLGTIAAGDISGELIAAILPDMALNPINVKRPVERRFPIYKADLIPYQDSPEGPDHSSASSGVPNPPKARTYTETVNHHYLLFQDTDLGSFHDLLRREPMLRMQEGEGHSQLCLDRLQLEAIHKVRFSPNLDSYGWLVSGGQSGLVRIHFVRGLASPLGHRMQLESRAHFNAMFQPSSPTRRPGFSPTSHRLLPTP

[3] = biological target: GST-EZH2 fragment A, N-terminal region (Domain I + Domain II), aa 1-522 (UniProt Q15910); test: pull-down; purified GST fusion proteins on Glutathione Sepharose 4B beads mixed with HeLa cell lysates (cells transfected with Flag-TFIIIC102 or Flag-EZH2), 4°C overnight, washed 4x with NP-40 buffer, western blot; only the target purified
[4] = biological target: GST-SUZ12 (UniProt Q15022); test: as above
[5] = biological target: EZH2 (Enhancer of Zeste Homolog 2), endogenous (human (endogenous in MCF7, SUM159)) (UniProt Q15910); test: co-IP; endogenous proteins; MCF7 and SUM159 lysates in NP-40 buffer (50 mM Tris-HCl pH 7.4, 150 mM NaCl, 1% NP-40, 1 mM EDTA), antibody overnight at 4°C, protein A/G-Sepharose, western blot; normal rabbit or mouse IgG as negative controls; EZH2-TFIIIC102 also with DNase
[6] = biological target: SUZ12, endogenous (human (endogenous in MCF7, SUM159)) (UniProt Q15022); test: as above

Measured: binding

SUZ12, endogenous (from UniProt Q15022 1-739)
binds: [1] | [2]

B1: TFIIIC63, endogenous (protein, UniProt Q9Y5Q8 1-519)
chain: MAAEAADLGLGAAVPVELRRERRMVCVEYPGVVRDVAKMLPTLGGEEGVSRIYADPTKRLELYFRPKDPYCHPVCANRFSTSSLLLRIRKRTRRQKGVLGTEAHSEVTFDMEILGIISTIYKFQGMSDFQYLAVHTEAGGKHTSMYDKVLMLRPEKEAFFHQELPLYIPPPIFSRLDAPVDYFYRPETQHREGYNNPPISGENLIGLSRARRPHNAIFVNFEDEEVPKQPLEAAAQTWRRVCTNPVDRKVEEELRKLFDIRPIWSRNAVKANISVHPDKLKVLLPFIAYYMITGPWRSLWIRFGYDPRKNPDAKIYQVLDFRIRCGMKHGYAPSDLPVKAKRSTYNYSLPITVKKTSSQLVTMHDLKQGLGPSGTSGARKPASSKYKLKDSVYIFREGALPPYRQMFYQLCDLNVEELQKIIHRNDGAENSCTERDGWCLPKTSDELRDTMSLMIRQTIRSKRPALFSSSAKADGGKEQLTYESGEDEEDEEEEEEEEEDFKPSDGSENEMETEILDYV
binds: [3] | [4] | [5] | [6]
